## Results of single-concentration screens

The values are deposited in ChEMBL (CHEMBL3988442, “University of Dundee, Small-Polar-MMV Screening Library” (2021)).

The filed quantity is “Percent Effect” (%).
How 0% and 100% were set is not recorded. Most values in the screen are low, and negative values occur.
This is an unselected part of the compounds tested.
Two or more numbers in one place are separate tests of the same structure; such repeats can differ widely.

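Growth of Mycobacterium tuberculosis over 4 days (cholesterol / DPPC medium with tyloxapol); the read-out is not stated. Tested at 50 µM. The record gives no direction; compounds that gave an IC50 in retests scored well above the rest, so higher reads as more growth inhibition. About 69,000 compounds were tested under these conditions; 0.54% (about 370) showed 50% or more at least once.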

structure | effect
CN(C)c1nc(N)nc(CN2CCC(c3nc4ccccc4o3)CC2)n1 | 4.773
Cc1cccnc1NC(=O)NC(C)Cn1cccn1 (configuration not stated) | -12.15
O=C(c1cccc2c1OCCO2)N1CCCC1Cn1cccn1 (configuration not stated) | -0.2539
CCn1c(C)nnc1CN(C)C1CCN(CCCSC)C1 (configuration not stated) | -9.24
CC(=O)N1CCC(c2cc(Nc3ncccn3)nc(C)n2)C1 (configuration not stated) | 0.539
CC(=O)N1CCC(N2CCOC[C@H]2c2nc(-c3ccncc3)c[nH]2)CC1 | -16.24
Cc1nn(C)c(C)c1C(=O)NCc1ccnc(OCC(F)(F)F)c1 | 11.16
Cc1cccnc1CN1CCN(C(=O)c2cnn(C(C)C)c2)CC1 | -15.45
Cc1cnn(CC2CCCCN2C(=O)c2ccc3c(c2)COC3)c1 (configuration not stated) | -0.9692
Cn1ccnc1COc1ccc(NC(=O)C2CCCO2)cc1 (configuration not stated) | -24.38
O=C1CSC(c2ccncc2)c2c[nH]nc2N1 (configuration not stated) | -8.678
CC(C)N(C)C(=O)CN1C(=O)OC[C@@H]1c1ccccc1 | 6.337
CC(C)OCCCNC(=O)N(C)C(C)c1ccc(-n2cncn2)cc1 (configuration not stated) | 15.7
COc1ccccc1C1(NCc2c(C)nc3c(C)cccn23)CCCC1.Cl | -6.785 & -7.608
CC(=O)NCc1ccc(S(=O)(=O)NC(=O)c2ccc3c(c2)COC3)cc1 | -5.541
NC(=O)CCn1ccc(NCc2cc(F)ccc2Br)n1 | -5.369
CNc1cc(CNC(=O)c2ccccc2OC)nc(-c2ccncc2)n1 | 4.488
c1ccc2sc(N3CCCC(Cn4cncn4)C3)nc2c1 (configuration not stated) | -7.026
Cc1cc(C)n(C2CCN(S(=O)(=O)N3CCOCC3)CC2)n1 | -3.251
c1cc(CNCc2ccnc(N3CCCC3)c2)c2c(c1)OCCCO2 | 5.908
[H][C@]1([C@H](O)c2ccc(NC(C)=O)cc2)COCC(=O)N1CC(C)C | 7.757
Cc1ccc(CN2CCN(CC(=O)Nc3ccc4nsnc4c3)CC2)o1 | 30.13
Cc1cc(C)n(CCNC(=O)c2cc(C3CC3)n[nH]2)n1 | 0.763
CN(C)CCN1CCN(Cc2ccco2)Cc2cccnc21.O=C(O)C(F)(F)F.O=C(O)C(F)(F)F.O=C(O)C(F)(F)F | -3.955
CCn1ccnc1CN1CCN(c2nc(C)cc(OC)n2)CC1 | -0.3947
CC1CCCN(CCNC(=O)c2ccn(-c3ccccc3)n2)C1 (configuration not stated) | -18.16
CC(=O)Nc1ccc(C(=O)N2CCOc3nc(C)ccc32)cc1 | -6.444
O=C(CCc1cc2n(n1)CCCN(C(=O)c1cccnc1)C2)NC1CC1 | -21.72
CN1CCN(CC2(O)CCN(C(=O)CCc3ccccc3F)C2)CC1 (configuration not stated) | -6.127 & -10.81
Cc1ccnc(NCCNC(=O)CCNC(=O)c2ccccc2F)c1 | 1.599
COC(=O)CC(NC(=O)c1ccccc1OC)c1cccs1 (configuration not stated) | -28.48
CN1CCN(CC2CC2)C(=O)C12CCN(C(=O)CC(F)(F)F)CC2.O=C(O)C(F)(F)F | 17.98
O=C(O)CC(CC(=O)NCCc1ccsc1)c1cccs1 (configuration not stated) | 3.639
COCC(=O)Nc1ccc(N2CCC(OC)CC2)c(C(F)(F)F)c1 | 5.521 & 4.152
OCCc1ccccc1-n1ccnc1-c1cn(C2CCNCC2)nn1 | -16.25
CC(CNC(=O)Nc1ccc(F)cc1-n1cccc1)N1CCOCC1 (configuration not stated) | -8.22
O=C(O)C(F)(F)F.O=S(=O)(NC1CCC12CCN(CC1CC1)CC2)c1ccccc1 (configuration not stated) | 9.744
O=C(CN1CCN(CCO)CC1)NCCc1c(F)cccc1F | 0.9678 & 1.596
CN(C(=O)CCc1ccncc1)C1CCCN(CCc2ccccc2)C1 (configuration not stated) | 0.4434
CC(C)OCCC(=O)NCC(c1c(F)cccc1F)N(C)C (configuration not stated) | -25.36
COc1c(C)cnc(CN2CCOC(CNc3cccnn3)C2)c1C (configuration not stated) | -10.09
Cc1ccc(C(=O)N2CCOCC3(CCN(C4CCOCC4)C3)C2)o1.O=C(O)C(F)(F)F (configuration not stated) | -3.11
Cc1occc1C(=O)NCC(=O)NCCOc1ccc2c(c1)CCC2 | 16.52 & 13.84
COCC(=O)NCc1cc(=O)n2c(n1)CN(Cc1ccncc1)CCC2 | -7.779
CCN(Cc1nc(COC)no1)C(=O)CCn1c(C)cc2ccccc21 | 8.822
CCc1nccn1C1CCCN(C(=O)c2ccoc2C)C1 (configuration not stated) | -25.48
Cc1ccc(OCC(=O)NC2CCN(S(C)(=O)=O)CC2)cc1 | -15.49
[H][C@@]12CN(Cc3cccnc3)CCO[C@]1([H])CN(C(=O)c1ccncn1)C2 | 2.413
O=C(c1cc(Cl)c2c(c1)OCCO2)N1CCCC(n2cncn2)C1 (configuration not stated) | 18.3
CC(C)NC(=O)NC[C@@]1(COc2cnccn2)C[C@@H](O)[C@@H](O)C1.Cl | 2.48
COc1ccc(CC(=O)N2CCN(Cc3ccco3)C[C@H]2C)cc1OC | -23.32 & 1.115
CN(C)c1nccc(C2CCCN(C(=O)CO)C2)n1 (configuration not stated) | 12.1
Cn1c(N)nnc1SC1CCCN(c2ccccc2)C1=O (configuration not stated) | 26.01
CCc1oc(C(=O)N2CCCC(c3nnn[nH]3)C2)cc1C (configuration not stated) | 9.91
CC(C)(C)C(=O)N1CCCC1c1nccnc1Cl (configuration not stated) | -11.14
CNc1cc(C)nc(NC2CCCN(C3Cc4ccccc4C3)C2)n1 (configuration not stated) | -1.045
Cn1cccc1C(=O)NC(C)(C(N)=O)c1cccc(C(F)(F)F)c1 (configuration not stated) | -14.13
N#Cc1cc2cc(Cl)cnc2nc1O | -1.816
CCN1CCN(C(=O)c2c[nH]c(C(C)C)n2)c2ccccc21 | 12.11
CS(=O)(=O)c1ccc(C(=O)N2CCCC(n3cncn3)C2)o1 (configuration not stated) | -30.03
CSc1ccccc1-n1ccnc1-c1cn(C2CCNCC2)nn1 | -1.606

8 of the entries, repeated:

structure,effect
Cc1nn(C)c(C)c1C(=O)NCc1ccnc(OCC(F)(F)F)c1,11.16
CNc1cc(C)nc(NC2CCCN(C3Cc4ccccc4C3)C2)n1 (configuration not stated),-1.045
CN1CCN(CC2(O)CCN(C(=O)CCc3ccccc3F)C2)CC1 (configuration not stated),-6.127 & -10.81
N#Cc1cc2cc(Cl)cnc2nc1O,-1.816
CN(C(=O)CCc1ccncc1)C1CCCN(CCc2ccccc2)C1 (configuration not stated),0.4434
Cn1c(N)nnc1SC1CCCN(c2ccccc2)C1=O (configuration not stated),26.01
O=C(c1cc(Cl)c2c(c1)OCCO2)N1CCCC(n2cncn2)C1 (configuration not stated),18.3
Cc1occc1C(=O)NCC(=O)NCCOc1ccc2c(c1)CCC2,16.52 & 13.84